# Results from patent publication US4529733A, “Antihypertensive 3-furoyl-1,4-dihydropyridines” (Merrell Dow Pharmaceuticals Inc., priority 1983, dated 1985).
# Protein sequences, listed by entry. Tags and fused reporters are not part of them.
# UniProt O35505, whole entry: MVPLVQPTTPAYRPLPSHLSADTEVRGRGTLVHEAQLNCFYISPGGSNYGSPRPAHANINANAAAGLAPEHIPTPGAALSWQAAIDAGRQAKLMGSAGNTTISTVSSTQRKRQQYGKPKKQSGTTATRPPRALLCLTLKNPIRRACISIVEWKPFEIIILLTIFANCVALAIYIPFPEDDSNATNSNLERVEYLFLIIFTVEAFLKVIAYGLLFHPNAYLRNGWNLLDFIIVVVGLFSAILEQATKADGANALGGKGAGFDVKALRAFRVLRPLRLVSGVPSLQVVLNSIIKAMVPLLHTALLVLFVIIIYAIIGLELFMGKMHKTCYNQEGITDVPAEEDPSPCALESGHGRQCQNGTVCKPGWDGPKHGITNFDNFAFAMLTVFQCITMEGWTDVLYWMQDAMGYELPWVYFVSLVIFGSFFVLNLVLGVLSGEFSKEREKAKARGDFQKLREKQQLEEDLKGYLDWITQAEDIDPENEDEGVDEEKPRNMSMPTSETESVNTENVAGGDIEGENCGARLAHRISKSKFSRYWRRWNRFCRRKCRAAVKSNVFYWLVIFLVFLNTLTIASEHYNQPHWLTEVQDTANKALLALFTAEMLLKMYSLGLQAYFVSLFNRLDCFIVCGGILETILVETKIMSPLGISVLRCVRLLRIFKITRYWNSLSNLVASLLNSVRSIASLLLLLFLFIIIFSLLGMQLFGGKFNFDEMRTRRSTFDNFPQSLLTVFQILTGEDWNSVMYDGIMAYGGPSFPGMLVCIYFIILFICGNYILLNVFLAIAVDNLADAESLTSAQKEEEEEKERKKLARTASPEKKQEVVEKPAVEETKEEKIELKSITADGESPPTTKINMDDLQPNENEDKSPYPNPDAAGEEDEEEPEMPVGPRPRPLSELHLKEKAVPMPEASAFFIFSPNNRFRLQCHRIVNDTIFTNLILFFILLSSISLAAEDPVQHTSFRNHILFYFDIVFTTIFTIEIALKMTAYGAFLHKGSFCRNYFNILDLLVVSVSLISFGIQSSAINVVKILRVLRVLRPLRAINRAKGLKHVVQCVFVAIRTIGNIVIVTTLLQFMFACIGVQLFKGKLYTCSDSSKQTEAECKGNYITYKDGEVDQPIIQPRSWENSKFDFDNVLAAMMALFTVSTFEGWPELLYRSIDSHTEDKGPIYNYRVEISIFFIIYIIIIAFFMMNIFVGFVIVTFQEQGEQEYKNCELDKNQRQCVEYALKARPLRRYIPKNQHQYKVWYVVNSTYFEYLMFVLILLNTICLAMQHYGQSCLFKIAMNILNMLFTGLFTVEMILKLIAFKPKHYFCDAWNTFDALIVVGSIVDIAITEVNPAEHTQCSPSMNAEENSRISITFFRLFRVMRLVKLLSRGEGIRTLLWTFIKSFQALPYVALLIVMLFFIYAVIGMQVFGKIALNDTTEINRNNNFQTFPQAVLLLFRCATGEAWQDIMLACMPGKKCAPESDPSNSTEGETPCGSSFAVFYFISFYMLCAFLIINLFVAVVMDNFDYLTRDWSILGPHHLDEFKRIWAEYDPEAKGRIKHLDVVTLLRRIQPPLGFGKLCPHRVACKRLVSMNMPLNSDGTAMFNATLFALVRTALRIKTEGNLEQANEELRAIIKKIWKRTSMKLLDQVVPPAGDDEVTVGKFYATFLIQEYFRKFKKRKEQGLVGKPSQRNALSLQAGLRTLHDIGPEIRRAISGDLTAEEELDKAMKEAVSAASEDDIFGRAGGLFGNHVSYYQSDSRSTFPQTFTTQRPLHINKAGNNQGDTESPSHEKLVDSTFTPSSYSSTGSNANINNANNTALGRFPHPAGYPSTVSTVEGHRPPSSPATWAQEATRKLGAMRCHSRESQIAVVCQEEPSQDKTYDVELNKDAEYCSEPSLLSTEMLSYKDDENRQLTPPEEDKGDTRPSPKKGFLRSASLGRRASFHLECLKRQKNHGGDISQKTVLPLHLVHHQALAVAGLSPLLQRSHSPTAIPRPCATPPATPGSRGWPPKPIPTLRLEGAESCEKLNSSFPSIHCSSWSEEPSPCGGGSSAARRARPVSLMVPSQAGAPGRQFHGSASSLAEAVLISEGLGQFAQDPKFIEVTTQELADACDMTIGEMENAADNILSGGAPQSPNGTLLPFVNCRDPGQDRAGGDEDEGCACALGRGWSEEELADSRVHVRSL
# Legend:
# [1] = target: T1, K^+ -depolarized taenia preparations from the guinea pig caecum (Cavia porcellus, UniProt O35505); conditions: M. Spedding, Naunyn-Schmiedeberg's Arch. Pharmacol., 318, 234 (1982); cited from earlier work
# T1 construct: taenia preparations from the guinea pig caecum; from tissue; host or cells: guinea pig caecum, taenia (smooth muscle)
# pithed rats = experiment: Anti-hypertensive activity in pithed rats (blood pressure elevated by angiotensin II infusion); type: in vivo, rat
# [2] = tested on: conscious spontaneously hypertensive rats (stroke prone strain); experiment: Anti-hypertensive effect in conscious spontaneously hypertensive rats (stroke prone strain); type: in vivo, rat
# Method: In this test, the test compound is injected in an indwelling cannula in the femoral vein and blood pressure is measured by an indwelling catheter in the femoral artery. Heart rate is also measured.
# [3] = tested on: pentobarbitone-anesthetized rats; experiment: Anti-hypertensive effect in pentobarbitone-anesthetized rats; type: in vivo, rat; conditions: for Change in diastolic blood pressure / Change in heart rate: pentobarbitone-anesthetized rats
# Method: In this test, rats, anesthetized with a 45 to 60 mg/kg dose (i.p.) of sodium pentabarbitone, receive the test compound by injection by means of an indwelling cannula in the femoral vein. Diastolic blood pressure is measured by an indwelling catheter in the femoral artery. Heart rate is also measured.
smiles,measurement,setting,value
"COC(=O)C1=C(C)NC(C)=C(C(=O)OC)C1c1ccccc1[N+](=O)[O-] [Nifedipine, 4-(2'-nitrophenyl)-2,6-dimethyl-3,5-dicarbomethoxy-1,4-dihydropyridine, reference compound]",published pA2,[1],9.8±0.1
same,Change in diastolic blood pressure,pithed rats; 10 nmol/kg i.v.,92.5 ± 3.5 % control
same,Change in heart rate,pithed rats; 10 nmol/kg i.v.,100 % control
same,Change in diastolic blood pressure,pithed rats; 30 nmol/kg i.v.,74.6 ± 7.9 % control
same,Change in heart rate,pithed rats; 30 nmol/kg i.v.,97.6 ± 1.3 % control
same,Change in diastolic blood pressure,pithed rats; 100 nmol/kg i.v.,56.3 ± 4.6 % control
same,Change in heart rate,pithed rats; 100 nmol/kg i.v.,98.2 ± 1.8 % control
same,Change in diastolic blood pressure,pithed rats; 300 nmol/kg i.v.,50.1 ± 1.3 % control
same,Change in heart rate,pithed rats; 300 nmol/kg i.v.,92.2 ± 2.7 % control
same,Change in diastolic blood pressure,pithed rats; 1000 nmol/kg i.v.,19.5 ± 5.9 % control
same,Change in heart rate,pithed rats; 1000 nmol/kg i.v.,91.9 ± 2.9 % control
same,bradycardia,"pithed rats; i.v., result in words",not prominent
same,"diastolic blood pressure, elevated by an infusion of angiotensin II","pithed rats; i.v., result in words",significantly reduced
same,Fall in mean blood pressure,[2]; 100 nmol/kg i.v.,7.0 ± 1.5 mm Hg
same,Increase in heart rate,[2]; 100 nmol/kg i.v.,24.0 ± 2.5 beats/min
same,Fall in mean blood pressure,[2]; 300 nmol/kg i.v.,22.5 ± 3.5 mm Hg
same,Increase in heart rate,[2]; 300 nmol/kg i.v.,57.0 ± 5.8 beats/min
same,Fall in mean blood pressure,[2]; 1000 nmol/kg i.v.,43.1 ± 3.4 mm Hg
same,Increase in heart rate,[2]; 1000 nmol/kg i.v.,112.5 ± 4.8 beats/min
same,Fall in mean blood pressure,[2]; 3000 nmol/kg i.v.,63.1 ± 5.6 mm Hg
same,Increase in heart rate,[2]; 3000 nmol/kg i.v.,125.0 ± 13.2 beats/min
same,blood pressure,"[2]; i.v., result in words",significantly reduced blood pressure in a dose-dependent manner
same,reflex tachycardia,"[2]; i.v., result in words",produced reflex tachycardia
same,reflex tachycardia,"[3]; anesthetized rats, i.v., compared with Compound A, result in words",significantly more reflex tachycardia
same,blood pressure in anesthetized rats,"[3]; anesthetized rats, i.v., result in words",reduced blood pressure in anesthetized rats in a dose-dependent manner
same,Change in diastolic blood pressure,[3]; 10 nmol/kg i.v.,87.0 ± 3.7 % control
same,Change in heart rate,[3]; 10 nmol/kg i.v.,108.3 ± 2.0 % control
same,Change in diastolic blood pressure,[3]; 30 nmol/kg i.v.,86.6 ± 3.6 % control
same,Change in heart rate,[3]; 30 nmol/kg i.v.,113.5 ± 2.2 % control
same,Change in diastolic blood pressure,[3]; 100 nmol/kg i.v.,62.9 ± 3.6 % control
same,Change in heart rate,[3]; 100 nmol/kg i.v.,121.1 ± 3.3 % control
same,Change in diastolic blood pressure,[3]; 300 nmol/kg i.v.,68.3 ± 4.3 % control
same,Change in heart rate,[3]; 300 nmol/kg i.v.,118.1 ± 4.0 % control
same,Change in diastolic blood pressure,[3]; 1000 nmol/kg i.v.,54.2 ± 4.7 % control
same,Change in heart rate,[3]; 1000 nmol/kg i.v.,117.3 ± 5.2 % control
same,Change in diastolic blood pressure,[3]; 3000 nmol/kg i.v.,37.2 ± 3.1 % control
same,Change in heart rate,[3]; 3000 nmol/kg i.v.,113.0 ± 3.9 % control
